According to patent US11090319B2, “Therapeutic uses of pharmaceutical compositions comprising cyclic boronic acid ester derivatives” (Melinta Subsidiary Corp., priority 2010, dated 2021):
At least one read-out could not be matched to a standard name with certainty.

Experiments:
EC1007 KPC-3 = assay type: cell-based, Escherichia coli
[1] = system: strains expressing class A ESBLs; assay type: cell-based
[2] = system: strains expressing class C and D enzymes; assay type: cell-based

Compound | AZT MPC4 KPC-3 EC1007 (EC1007 KPC-3) | AZT MPC4 CTX-M-14 KP1005 [1] | AZT MPC4 CTX-M-15 KP1009 [1] | AZT MPC4 SHV-5 ec308 [1] | AZT MPC4 SHV-12 KP1010 [1] | AZT MPC4 SHV-18 KP1012 [1] | AZT MPC4 TEM-10 EC1009 [1] | AZT MPC4 TEM-10 ec302 [1] | AZT MPC4 TEM-26 ec304 [1] | AZT MPC@4 CMY-6 EC1010 [2] | AZT MPC@4 ECL1002 [2] | AZT MPC@4 OXA-2, KPX1001 [2] | AZT MPC@4 OXA-10, qnrB4 KP1007 [2] | AZT MPC@4 PAM2035 [2]
CC(=O)N[C@H]1CCC(CC(=O)O)OB1O (stereo partly drawn) [Compound 3, 2-((3R)-3-acetamido-2-hydroxy-1,2-oxaborinan-6-yl)acetic acid] | X (key: X: MPC@4 of less than 5 μg/mL; Y: MPC@4 of 5 μg/mL to 20 μg/mL; Z: MPC@4 of greater than 20 μg/mL) | Z (key: X: MPC@4 of less than 5 μg/mL; Y: MPC@4 of 5 μg/mL to 20 μg/mL; Z: MPC@4 of greater than 20 μg/mL) | Z (key: X: MPC@4 of less than 5 μg/mL; Y: MPC@4 of 5 μg/mL to 20 μg/mL; Z: MPC@4 of greater than 20 μg/mL) | Z (key: X: MPC@4 of less than 5 μg/mL; Y: MPC@4 of 5 μg/mL to 20 μg/mL; Z: MPC@4 of greater than 20 μg/mL) | Z (key: X: MPC@4 of less than 5 μg/mL; Y: MPC@4 of 5 μg/mL to 20 μg/mL; Z: MPC@4 of greater than 20 μg/mL) | Z (key: X: MPC@4 of less than 5 μg/mL; Y: MPC@4 of 5 μg/mL to 20 μg/mL; Z: MPC@4 of greater than 20 μg/mL) | Z (key: X: MPC@4 of less than 5 μg/mL; Y: MPC@4 of 5 μg/mL to 20 μg/mL; Z: MPC@4 of greater than 20 μg/mL) | Z (key: X: MPC@4 of less than 5 μg/mL; Y: MPC@4 of 5 μg/mL to 20 μg/mL; Z: MPC@4 of greater than 20 μg/mL) | Z (key: X: MPC@4 of less than 5 μg/mL; Y: MPC@4 of 5 μg/mL to 20 μg/mL; Z: MPC@4 of greater than 20 μg/mL) | Z (key: X: MPC@4 of less than 5 μg/mL; Y: MPC@4 of 5 μg/mL to 20 μg/mL; Z: MPC@4 of greater than 20 μg/mL) | Z (key: X: MPC@4 of less than 5 μg/mL; Y: MPC@4 of 5 μg/mL to 20 μg/mL; Z: MPC@4 of greater than 20 μg/mL) | Z (key: X: MPC@4 of less than 5 μg/mL; Y: MPC@4 of 5 μg/mL to 20 μg/mL; Z: MPC@4 of greater than 20 μg/mL) | Z (key: X: MPC@4 of less than 5 μg/mL; Y: MPC@4 of 5 μg/mL to 20 μg/mL; Z: MPC@4 of greater than 20 μg/mL) | Z (key: X: MPC@4 of less than 5 μg/mL; Y: MPC@4 of 5 μg/mL to 20 μg/mL; Z: MPC@4 of greater than 20 μg/mL)
O=C(O)CC1CC[C@H](NC(=O)C2CC2)B(O)O1 (stereo partly drawn) [Compound 4, 2-((3R)-3-(cyclopropanecarboxamido)-2-hydroxy-1,2-oxaborinan-6-yl)acetic acid] | X (key: X: MPC@4 of less than 5 μg/mL; Y: MPC@4 of 5 μg/mL to 20 μg/mL; Z: MPC@4 of greater than 20 μg/mL) | Z (key: X: MPC@4 of less than 5 μg/mL; Y: MPC@4 of 5 μg/mL to 20 μg/mL; Z: MPC@4 of greater than 20 μg/mL) | Z (key: X: MPC@4 of less than 5 μg/mL; Y: MPC@4 of 5 μg/mL to 20 μg/mL; Z: MPC@4 of greater than 20 μg/mL) | Z (key: X: MPC@4 of less than 5 μg/mL; Y: MPC@4 of 5 μg/mL to 20 μg/mL; Z: MPC@4 of greater than 20 μg/mL) | Z (key: X: MPC@4 of less than 5 μg/mL; Y: MPC@4 of 5 μg/mL to 20 μg/mL; Z: MPC@4 of greater than 20 μg/mL) | Z (key: X: MPC@4 of less than 5 μg/mL; Y: MPC@4 of 5 μg/mL to 20 μg/mL; Z: MPC@4 of greater than 20 μg/mL) | Z (key: X: MPC@4 of less than 5 μg/mL; Y: MPC@4 of 5 μg/mL to 20 μg/mL; Z: MPC@4 of greater than 20 μg/mL) | Z (key: X: MPC@4 of less than 5 μg/mL; Y: MPC@4 of 5 μg/mL to 20 μg/mL; Z: MPC@4 of greater than 20 μg/mL) | Z (key: X: MPC@4 of less than 5 μg/mL; Y: MPC@4 of 5 μg/mL to 20 μg/mL; Z: MPC@4 of greater than 20 μg/mL) | Y (key: X: MPC@4 of less than 5 μg/mL; Y: MPC@4 of 5 μg/mL to 20 μg/mL; Z: MPC@4 of greater than 20 μg/mL) | Y (key: X: MPC@4 of less than 5 μg/mL; Y: MPC@4 of 5 μg/mL to 20 μg/mL; Z: MPC@4 of greater than 20 μg/mL) | Z (key: X: MPC@4 of less than 5 μg/mL; Y: MPC@4 of 5 μg/mL to 20 μg/mL; Z: MPC@4 of greater than 20 μg/mL) | Z (key: X: MPC@4 of less than 5 μg/mL; Y: MPC@4 of 5 μg/mL to 20 μg/mL; Z: MPC@4 of greater than 20 μg/mL) | Z (key: X: MPC@4 of less than 5 μg/mL; Y: MPC@4 of 5 μg/mL to 20 μg/mL; Z: MPC@4 of greater than 20 μg/mL)
O=C(O)C[C@@H]1CC[C@H](NC(=O)Cc2ccccc2)B(O)O1 [Compound 6, 2-((3R,6S)-2-hydroxy-3-(2-phenylacetamido)-1,2-oxaborinan-6-yl)acetic acid] | X (key: X: MPC@4 of less than 5 μg/mL; Y: MPC@4 of 5 μg/mL to 20 μg/mL; Z: MPC@4 of greater than 20 μg/mL) | Z (key: X: MPC@4 of less than 5 μg/mL; Y: MPC@4 of 5 μg/mL to 20 μg/mL; Z: MPC@4 of greater than 20 μg/mL) | Z (key: X: MPC@4 of less than 5 μg/mL; Y: MPC@4 of 5 μg/mL to 20 μg/mL; Z: MPC@4 of greater than 20 μg/mL) | Z (key: X: MPC@4 of less than 5 μg/mL; Y: MPC@4 of 5 μg/mL to 20 μg/mL; Z: MPC@4 of greater than 20 μg/mL) | Y (key: X: MPC@4 of less than 5 μg/mL; Y: MPC@4 of 5 μg/mL to 20 μg/mL; Z: MPC@4 of greater than 20 μg/mL) | Y (key: X: MPC@4 of less than 5 μg/mL; Y: MPC@4 of 5 μg/mL to 20 μg/mL; Z: MPC@4 of greater than 20 μg/mL) | Y (key: X: MPC@4 of less than 5 μg/mL; Y: MPC@4 of 5 μg/mL to 20 μg/mL; Z: MPC@4 of greater than 20 μg/mL) | Z (key: X: MPC@4 of less than 5 μg/mL; Y: MPC@4 of 5 μg/mL to 20 μg/mL; Z: MPC@4 of greater than 20 μg/mL) | Y (key: X: MPC@4 of less than 5 μg/mL; Y: MPC@4 of 5 μg/mL to 20 μg/mL; Z: MPC@4 of greater than 20 μg/mL) | Z (key: X: MPC@4 of less than 5 μg/mL; Y: MPC@4 of 5 μg/mL to 20 μg/mL; Z: MPC@4 of greater than 20 μg/mL) | Y (key: X: MPC@4 of less than 5 μg/mL; Y: MPC@4 of 5 μg/mL to 20 μg/mL; Z: MPC@4 of greater than 20 μg/mL) | Z (key: X: MPC@4 of less than 5 μg/mL; Y: MPC@4 of 5 μg/mL to 20 μg/mL; Z: MPC@4 of greater than 20 μg/mL) | Y (key: X: MPC@4 of less than 5 μg/mL; Y: MPC@4 of 5 μg/mL to 20 μg/mL; Z: MPC@4 of greater than 20 μg/mL) | Y (key: X: MPC@4 of less than 5 μg/mL; Y: MPC@4 of 5 μg/mL to 20 μg/mL; Z: MPC@4 of greater than 20 μg/mL)
Cl.N[C@H]1CCC(CC(=O)O)OB1O (stereo partly drawn) [Compound 7, 2-((3R)-3-amino-2-hydroxy-1,2-oxaborinan-6-yl)acetic acid hydrochloride] |  | Z (key: X: MPC@4 of less than 5 μg/mL; Y: MPC@4 of 5 μg/mL to 20 μg/mL; Z: MPC@4 of greater than 20 μg/mL) | Z (key: X: MPC@4 of less than 5 μg/mL; Y: MPC@4 of 5 μg/mL to 20 μg/mL; Z: MPC@4 of greater than 20 μg/mL) | Z (key: X: MPC@4 of less than 5 μg/mL; Y: MPC@4 of 5 μg/mL to 20 μg/mL; Z: MPC@4 of greater than 20 μg/mL) | Z (key: X: MPC@4 of less than 5 μg/mL; Y: MPC@4 of 5 μg/mL to 20 μg/mL; Z: MPC@4 of greater than 20 μg/mL) | Y (key: X: MPC@4 of less than 5 μg/mL; Y: MPC@4 of 5 μg/mL to 20 μg/mL; Z: MPC@4 of greater than 20 μg/mL) | X (key: X: MPC@4 of less than 5 μg/mL; Y: MPC@4 of 5 μg/mL to 20 μg/mL; Z: MPC@4 of greater than 20 μg/mL) | Y (key: X: MPC@4 of less than 5 μg/mL; Y: MPC@4 of 5 μg/mL to 20 μg/mL; Z: MPC@4 of greater than 20 μg/mL) | Y (key: X: MPC@4 of less than 5 μg/mL; Y: MPC@4 of 5 μg/mL to 20 μg/mL; Z: MPC@4 of greater than 20 μg/mL) |  |  |  |  | 
N[C@H](C(=O)N[C@H]1CC[C@@H](CC(=O)O)OB1O)c1ccccc1 [Compound 33, 2-((3R,6S)-3-((S)-2-amino-2-phenylacetamido)-2-hydroxy-1,2-oxaborinan-6-yl)acetic acid] | X (key: X: MPC@4 of less than 5 μg/mL; Y: MPC@4 of 5 μg/mL to 20 μg/mL; Z: MPC@4 of greater than 20 μg/mL) | Z (key: X: MPC@4 of less than 5 μg/mL; Y: MPC@4 of 5 μg/mL to 20 μg/mL; Z: MPC@4 of greater than 20 μg/mL) | Z (key: X: MPC@4 of less than 5 μg/mL; Y: MPC@4 of 5 μg/mL to 20 μg/mL; Z: MPC@4 of greater than 20 μg/mL) | Z (key: X: MPC@4 of less than 5 μg/mL; Y: MPC@4 of 5 μg/mL to 20 μg/mL; Z: MPC@4 of greater than 20 μg/mL) | Z (key: X: MPC@4 of less than 5 μg/mL; Y: MPC@4 of 5 μg/mL to 20 μg/mL; Z: MPC@4 of greater than 20 μg/mL) | Z (key: X: MPC@4 of less than 5 μg/mL; Y: MPC@4 of 5 μg/mL to 20 μg/mL; Z: MPC@4 of greater than 20 μg/mL) | Z (key: X: MPC@4 of less than 5 μg/mL; Y: MPC@4 of 5 μg/mL to 20 μg/mL; Z: MPC@4 of greater than 20 μg/mL) | Z (key: X: MPC@4 of less than 5 μg/mL; Y: MPC@4 of 5 μg/mL to 20 μg/mL; Z: MPC@4 of greater than 20 μg/mL) | Z (key: X: MPC@4 of less than 5 μg/mL; Y: MPC@4 of 5 μg/mL to 20 μg/mL; Z: MPC@4 of greater than 20 μg/mL) | Z (key: X: MPC@4 of less than 5 μg/mL; Y: MPC@4 of 5 μg/mL to 20 μg/mL; Z: MPC@4 of greater than 20 μg/mL) | Z (key: X: MPC@4 of less than 5 μg/mL; Y: MPC@4 of 5 μg/mL to 20 μg/mL; Z: MPC@4 of greater than 20 μg/mL) | Z (key: X: MPC@4 of less than 5 μg/mL; Y: MPC@4 of 5 μg/mL to 20 μg/mL; Z: MPC@4 of greater than 20 μg/mL) | Z (key: X: MPC@4 of less than 5 μg/mL; Y: MPC@4 of 5 μg/mL to 20 μg/mL; Z: MPC@4 of greater than 20 μg/mL) | Z (key: X: MPC@4 of less than 5 μg/mL; Y: MPC@4 of 5 μg/mL to 20 μg/mL; Z: MPC@4 of greater than 20 μg/mL)
